Experimental data: patent publication US20260097098A1
Results are given in words; binding and its absence hold for the method and conditions named. Some binding calls cover weakened binding; strength is not graded here.

The chains behind the UniProt entries cited, without tags or fusion partners. Where a name states a change or a piece, a line headed by the entry shows the natural chain unless it says otherwise. A line that says so, or that is headed by a name, gives the form on record, which may keep a tag or linker.
human VEGF165 (non-biotinylated) (P15692, form named): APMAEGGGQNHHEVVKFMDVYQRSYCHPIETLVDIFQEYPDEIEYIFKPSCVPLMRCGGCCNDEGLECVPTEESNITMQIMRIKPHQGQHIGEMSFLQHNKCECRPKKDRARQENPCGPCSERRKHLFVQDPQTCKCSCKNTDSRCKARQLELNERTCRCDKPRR

Biological target: V1-2-3-4-Fc (Ig-like domains 1, 2, 3 and 4 of VEGFR-1 fused to human IgG1 Fc)
Assay: competition, unlabelled VEGF165 varied against biotinylated VEGF165 (100 ng/ml) on coated receptor

- binding: binds
Substance: human VEGF165 (non-biotinylated) (from UniProt P15692 27-191) (ligand)
